In patent US11780834B2, “Solid forms of 3-((1R,3R)-1-(2,6-difluoro-4-((1-(3-fluoropropyl)azetidin-3-yl)amino)phenyl)-3-methyl-1,3,4,9-tetrahydro-2H-pyrido[3,4-b]indol-2-yl)-2,2-difluoropropan-1-ol and processes for preparing fused tricyclic compounds comprising a substituted phenyl or pyridinyl moiety, including methods …” (Hoffmann-La Roche Inc., priority 2018, dated 2023):
Some of these results come from one statement about several compounds together.

Experiment: Water sorption analysis / DVS (hygroscopicity)
Assay type: physicochemical
Experimental: Water sorption analysis. About 5-6 mg of powder sample was placed in the sample pan of an automated water sorption analyzer (Q5000SA, TA instruments, New Castle, DE) at 25° C. and a nitrogen flow rate of 200 mL/min. […] This was followed by a progressive decrease in RH in decrements of 10% back to 0% RH, using the same protocol.

With `C[C@@H]1Cc2c([nH]c3ccccc23)[C@@H](c2c(F)cc(NC3CN(CCCF)C3)cc2F)N1CC(F)(F)CO` [Compound A, 3-((1R,3R)-1-(2,6-difluoro-4-((1-(3-fluoropropyl)azetidin-3-yl)amino)phenyl)-3-methyl-1,3,4,9-tetrahydro-2H-pyrido[3,4-b]indol-2-yl)-2,2-difluoropropan-1-ol] the “Hygroscopicity at 95% RH” value was < 1%.
